The list shows a part of the results.
How the values were obtained:
Experiment in all cases: log2 fold change, soluble protein after heating vs DMSO (PISA); higher = thermal stabilisation; K562 lysate, 10 uM; active = over 0.2 and 3.5 SD of the protein, either way, in both replicates (recomputed)
dasatinib = compound: Cc1nc(Nc2ncc(C(=O)Nc3c(C)cccc3Cl)s2)cc(N2CCN(CCO)CC2)n1 [dasatinib]
Outline: (§1)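 Values give the log-two fold change in thermal stability against solvent controls, from duplicates. Crude K562 extract at 1 mg/mL protein, made by dounce homogenisation in PBS pH 7.4 with 1 mM MgCl2, was treated with 10 μM compound for 30 min. After 3 min heating across 48°C-58°C, aliquots were pooled, adjusted to 0.5% NP-40 at 4°C and centrifuged at 21,000xg for 90 min. The supernatant was measured by TMTpro 16plex LC-MS/MS with channel sums equalised.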

Sequences of proteins named here, by UniProt entry; tags and fusion partners are left off. A change or cut given only in a name is not applied to a line headed by its entry.
UniProt Q92837: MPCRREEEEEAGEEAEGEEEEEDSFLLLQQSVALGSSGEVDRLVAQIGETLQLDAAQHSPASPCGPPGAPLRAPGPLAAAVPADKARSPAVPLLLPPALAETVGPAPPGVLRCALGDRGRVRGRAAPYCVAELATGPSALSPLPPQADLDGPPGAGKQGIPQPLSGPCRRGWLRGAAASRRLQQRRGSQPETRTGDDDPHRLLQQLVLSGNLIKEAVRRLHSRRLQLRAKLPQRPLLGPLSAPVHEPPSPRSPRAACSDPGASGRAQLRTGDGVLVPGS
UniProt Q8TET4: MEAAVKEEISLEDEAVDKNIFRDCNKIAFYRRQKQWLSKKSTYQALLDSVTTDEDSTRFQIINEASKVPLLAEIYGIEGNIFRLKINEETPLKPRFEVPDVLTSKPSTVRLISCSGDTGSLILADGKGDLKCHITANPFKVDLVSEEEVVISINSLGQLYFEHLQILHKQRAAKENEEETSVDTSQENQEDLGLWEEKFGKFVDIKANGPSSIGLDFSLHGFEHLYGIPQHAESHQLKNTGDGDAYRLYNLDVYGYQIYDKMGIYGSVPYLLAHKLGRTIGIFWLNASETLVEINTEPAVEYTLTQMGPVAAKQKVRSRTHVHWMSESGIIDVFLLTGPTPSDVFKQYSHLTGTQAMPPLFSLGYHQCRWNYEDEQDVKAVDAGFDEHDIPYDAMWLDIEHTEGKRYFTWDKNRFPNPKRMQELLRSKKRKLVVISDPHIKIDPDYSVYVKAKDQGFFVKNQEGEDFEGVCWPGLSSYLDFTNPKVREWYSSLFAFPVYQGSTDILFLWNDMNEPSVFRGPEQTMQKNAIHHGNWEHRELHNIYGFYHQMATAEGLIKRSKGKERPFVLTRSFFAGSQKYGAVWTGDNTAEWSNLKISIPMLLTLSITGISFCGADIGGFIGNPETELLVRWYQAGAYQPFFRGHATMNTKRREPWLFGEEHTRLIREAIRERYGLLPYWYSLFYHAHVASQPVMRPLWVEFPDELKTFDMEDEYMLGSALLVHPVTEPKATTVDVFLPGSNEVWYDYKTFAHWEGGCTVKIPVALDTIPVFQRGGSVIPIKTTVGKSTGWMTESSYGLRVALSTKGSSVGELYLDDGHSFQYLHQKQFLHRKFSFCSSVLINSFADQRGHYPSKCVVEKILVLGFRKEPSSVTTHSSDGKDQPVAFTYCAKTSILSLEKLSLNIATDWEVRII
UniProt P28676: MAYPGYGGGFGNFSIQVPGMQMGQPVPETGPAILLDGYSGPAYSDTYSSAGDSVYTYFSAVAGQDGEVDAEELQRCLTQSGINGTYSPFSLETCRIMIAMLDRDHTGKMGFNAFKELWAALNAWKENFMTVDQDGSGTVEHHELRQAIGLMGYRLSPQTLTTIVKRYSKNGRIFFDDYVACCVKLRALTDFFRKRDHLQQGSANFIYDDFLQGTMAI
UniProt Q06547, whole entry, looked up: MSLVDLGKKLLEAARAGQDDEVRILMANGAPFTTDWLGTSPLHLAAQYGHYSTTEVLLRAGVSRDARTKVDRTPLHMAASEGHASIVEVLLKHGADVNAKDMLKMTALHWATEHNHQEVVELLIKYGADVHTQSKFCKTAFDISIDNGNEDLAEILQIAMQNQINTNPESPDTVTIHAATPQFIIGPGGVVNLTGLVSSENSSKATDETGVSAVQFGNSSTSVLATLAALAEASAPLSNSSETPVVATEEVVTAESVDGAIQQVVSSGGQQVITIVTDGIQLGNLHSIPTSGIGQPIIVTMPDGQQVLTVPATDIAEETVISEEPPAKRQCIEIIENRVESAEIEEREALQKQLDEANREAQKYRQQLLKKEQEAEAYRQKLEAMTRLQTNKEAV
UniProt Q9UN86: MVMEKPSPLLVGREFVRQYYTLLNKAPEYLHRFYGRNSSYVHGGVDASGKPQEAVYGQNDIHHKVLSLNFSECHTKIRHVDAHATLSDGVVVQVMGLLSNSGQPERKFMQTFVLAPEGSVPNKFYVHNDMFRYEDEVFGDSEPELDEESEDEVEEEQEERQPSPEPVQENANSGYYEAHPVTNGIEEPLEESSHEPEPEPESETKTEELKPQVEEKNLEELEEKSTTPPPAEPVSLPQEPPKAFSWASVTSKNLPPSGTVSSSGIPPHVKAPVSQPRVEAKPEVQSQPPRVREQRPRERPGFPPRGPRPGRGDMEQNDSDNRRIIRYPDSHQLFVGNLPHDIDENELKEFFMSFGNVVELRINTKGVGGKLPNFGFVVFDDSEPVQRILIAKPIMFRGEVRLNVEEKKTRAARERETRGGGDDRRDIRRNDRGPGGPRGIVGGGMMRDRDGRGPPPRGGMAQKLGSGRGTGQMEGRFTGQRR
UniProt Q68DX3: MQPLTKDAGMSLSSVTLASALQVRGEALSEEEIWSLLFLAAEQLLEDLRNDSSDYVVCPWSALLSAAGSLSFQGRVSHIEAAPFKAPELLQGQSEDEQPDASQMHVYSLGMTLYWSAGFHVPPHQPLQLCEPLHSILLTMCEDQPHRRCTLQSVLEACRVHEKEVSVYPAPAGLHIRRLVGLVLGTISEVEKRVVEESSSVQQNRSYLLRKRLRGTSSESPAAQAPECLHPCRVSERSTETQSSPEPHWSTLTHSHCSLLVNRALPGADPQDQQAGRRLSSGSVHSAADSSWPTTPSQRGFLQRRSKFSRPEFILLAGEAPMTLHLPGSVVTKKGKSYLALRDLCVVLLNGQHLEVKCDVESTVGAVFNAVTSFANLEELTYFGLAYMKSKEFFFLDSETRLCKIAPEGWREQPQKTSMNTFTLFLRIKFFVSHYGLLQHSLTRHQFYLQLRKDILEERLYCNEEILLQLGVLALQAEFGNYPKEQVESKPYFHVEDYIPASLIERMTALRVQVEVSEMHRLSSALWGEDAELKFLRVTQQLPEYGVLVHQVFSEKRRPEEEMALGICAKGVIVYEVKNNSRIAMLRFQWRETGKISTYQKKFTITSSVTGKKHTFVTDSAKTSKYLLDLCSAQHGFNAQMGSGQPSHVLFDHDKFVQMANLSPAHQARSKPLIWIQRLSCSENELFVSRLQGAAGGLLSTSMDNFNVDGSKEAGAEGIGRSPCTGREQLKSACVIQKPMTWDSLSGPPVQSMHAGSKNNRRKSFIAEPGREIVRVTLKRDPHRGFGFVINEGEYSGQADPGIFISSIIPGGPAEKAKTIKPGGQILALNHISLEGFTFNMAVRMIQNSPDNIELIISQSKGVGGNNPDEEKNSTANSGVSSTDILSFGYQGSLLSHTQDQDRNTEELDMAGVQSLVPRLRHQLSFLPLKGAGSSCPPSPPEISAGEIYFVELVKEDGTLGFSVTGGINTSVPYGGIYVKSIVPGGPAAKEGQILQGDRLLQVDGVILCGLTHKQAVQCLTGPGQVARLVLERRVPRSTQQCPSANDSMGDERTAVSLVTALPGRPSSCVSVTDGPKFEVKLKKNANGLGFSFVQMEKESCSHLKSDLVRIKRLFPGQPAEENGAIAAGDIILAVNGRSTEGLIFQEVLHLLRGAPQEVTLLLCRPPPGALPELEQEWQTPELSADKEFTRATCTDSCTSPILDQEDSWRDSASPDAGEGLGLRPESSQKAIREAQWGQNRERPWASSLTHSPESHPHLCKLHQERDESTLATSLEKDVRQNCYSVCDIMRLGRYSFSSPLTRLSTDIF
UniProt P19526, whole entry, looked up: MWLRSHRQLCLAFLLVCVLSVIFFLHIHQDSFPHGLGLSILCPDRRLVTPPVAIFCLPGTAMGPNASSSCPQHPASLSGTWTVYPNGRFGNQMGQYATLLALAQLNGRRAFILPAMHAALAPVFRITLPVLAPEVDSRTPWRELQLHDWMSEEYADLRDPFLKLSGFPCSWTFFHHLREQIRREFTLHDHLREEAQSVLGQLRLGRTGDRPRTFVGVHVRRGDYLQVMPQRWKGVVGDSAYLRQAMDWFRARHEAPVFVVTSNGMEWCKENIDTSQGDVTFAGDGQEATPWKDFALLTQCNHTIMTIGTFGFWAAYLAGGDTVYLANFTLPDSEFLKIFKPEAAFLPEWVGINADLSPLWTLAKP
UniProt Q14393: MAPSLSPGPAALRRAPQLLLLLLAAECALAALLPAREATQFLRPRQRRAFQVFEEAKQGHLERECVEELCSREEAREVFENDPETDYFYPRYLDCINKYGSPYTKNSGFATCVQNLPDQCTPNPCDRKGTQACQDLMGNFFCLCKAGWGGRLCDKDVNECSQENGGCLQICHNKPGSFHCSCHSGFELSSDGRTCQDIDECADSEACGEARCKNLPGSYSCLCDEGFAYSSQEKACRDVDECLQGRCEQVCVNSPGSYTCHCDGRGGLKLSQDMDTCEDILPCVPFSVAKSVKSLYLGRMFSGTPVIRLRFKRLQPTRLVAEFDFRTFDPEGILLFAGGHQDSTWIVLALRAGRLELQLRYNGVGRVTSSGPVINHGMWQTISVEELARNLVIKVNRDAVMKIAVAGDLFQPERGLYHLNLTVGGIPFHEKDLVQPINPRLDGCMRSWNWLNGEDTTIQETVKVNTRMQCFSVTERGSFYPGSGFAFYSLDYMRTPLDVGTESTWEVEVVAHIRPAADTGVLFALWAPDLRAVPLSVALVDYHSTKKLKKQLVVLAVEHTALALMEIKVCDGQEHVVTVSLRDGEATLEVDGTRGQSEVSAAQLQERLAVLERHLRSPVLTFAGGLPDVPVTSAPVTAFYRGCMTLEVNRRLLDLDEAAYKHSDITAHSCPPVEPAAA
UniProt Q9UET6: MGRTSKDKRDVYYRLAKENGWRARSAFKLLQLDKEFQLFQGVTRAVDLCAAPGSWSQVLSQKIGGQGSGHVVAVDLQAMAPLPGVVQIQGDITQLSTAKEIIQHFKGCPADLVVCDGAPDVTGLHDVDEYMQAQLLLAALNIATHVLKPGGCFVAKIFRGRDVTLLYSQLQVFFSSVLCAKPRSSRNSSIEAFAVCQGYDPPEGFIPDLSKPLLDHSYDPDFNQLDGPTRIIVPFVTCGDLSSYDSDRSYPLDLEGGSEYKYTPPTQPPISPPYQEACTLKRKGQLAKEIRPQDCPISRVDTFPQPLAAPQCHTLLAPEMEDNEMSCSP
UniProt O14926: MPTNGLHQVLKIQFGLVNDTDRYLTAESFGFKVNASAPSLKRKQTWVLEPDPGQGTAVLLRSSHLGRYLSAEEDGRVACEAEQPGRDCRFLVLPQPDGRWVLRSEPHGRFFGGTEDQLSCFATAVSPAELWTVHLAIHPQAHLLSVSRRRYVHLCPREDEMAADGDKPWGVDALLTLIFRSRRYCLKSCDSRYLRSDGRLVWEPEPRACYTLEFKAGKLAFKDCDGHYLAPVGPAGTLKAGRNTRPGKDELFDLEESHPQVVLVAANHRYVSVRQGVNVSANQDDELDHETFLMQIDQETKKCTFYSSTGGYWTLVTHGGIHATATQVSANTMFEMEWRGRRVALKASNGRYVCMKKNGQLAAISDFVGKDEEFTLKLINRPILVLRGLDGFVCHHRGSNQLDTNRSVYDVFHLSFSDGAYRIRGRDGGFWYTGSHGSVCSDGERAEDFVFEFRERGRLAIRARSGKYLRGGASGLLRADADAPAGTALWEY
UniProt P27469: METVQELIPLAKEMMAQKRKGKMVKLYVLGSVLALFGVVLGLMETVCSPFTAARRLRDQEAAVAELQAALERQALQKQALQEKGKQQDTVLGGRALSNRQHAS
UniProt Q8WWW8: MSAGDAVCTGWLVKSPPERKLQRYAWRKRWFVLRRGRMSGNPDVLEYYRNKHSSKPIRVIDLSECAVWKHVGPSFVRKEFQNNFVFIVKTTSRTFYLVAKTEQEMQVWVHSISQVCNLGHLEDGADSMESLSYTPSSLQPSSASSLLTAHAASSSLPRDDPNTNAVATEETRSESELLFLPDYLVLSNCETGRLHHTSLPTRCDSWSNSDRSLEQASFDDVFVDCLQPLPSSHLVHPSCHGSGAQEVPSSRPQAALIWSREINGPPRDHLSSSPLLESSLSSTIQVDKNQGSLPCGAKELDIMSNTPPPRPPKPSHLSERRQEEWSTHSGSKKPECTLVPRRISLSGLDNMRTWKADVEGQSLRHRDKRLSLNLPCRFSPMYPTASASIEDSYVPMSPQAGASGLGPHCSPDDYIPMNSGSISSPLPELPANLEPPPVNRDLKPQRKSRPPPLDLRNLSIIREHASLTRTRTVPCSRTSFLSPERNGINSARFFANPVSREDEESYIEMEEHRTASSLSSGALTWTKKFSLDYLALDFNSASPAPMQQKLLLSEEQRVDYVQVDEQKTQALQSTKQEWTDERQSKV
UniProt Q3B7J2: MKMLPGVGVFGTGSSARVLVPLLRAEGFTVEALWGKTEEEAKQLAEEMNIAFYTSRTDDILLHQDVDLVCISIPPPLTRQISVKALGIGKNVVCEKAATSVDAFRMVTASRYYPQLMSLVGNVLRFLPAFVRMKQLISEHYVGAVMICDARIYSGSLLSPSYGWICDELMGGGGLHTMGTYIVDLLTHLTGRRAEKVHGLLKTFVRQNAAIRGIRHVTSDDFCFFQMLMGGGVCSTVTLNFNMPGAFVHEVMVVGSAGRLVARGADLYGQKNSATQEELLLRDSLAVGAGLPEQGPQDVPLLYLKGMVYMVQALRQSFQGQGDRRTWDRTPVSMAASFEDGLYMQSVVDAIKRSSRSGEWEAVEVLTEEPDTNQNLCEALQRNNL

[1] = compound: Cn1cc(-c2ccc3c(c2)CCN3C(=O)Cc2cccc(C(F)(F)F)c2)c2c(N)ncnc21
Outline: as §1

quisinostat = compound: Cn1cc(CNCC2CCN(c3ncc(C(=O)NO)cn3)CC2)c2ccccc21 [quisinostat]
Outline: as §1

[2] = compound: NC(=O)Nc1cc(-c2cccc(F)c2)sc1C(=O)N[C@H]1CCCNC1
Outline: as §1

[3] = compound: NC(=O)c1cnc(N[C@@H]2CCCC[C@@H]2N)nc1Nc1cccc(-n2nccn2)c1
Outline: as §1

[4] = compound: NC1(c2ccc(-c3nc4ccn5c(=O)[nH]nc5c4cc3-c3ccccc3)cc2)CCC1
Outline: as §1

nilotinib = compound: Cc1cn(-c2cc(NC(=O)c3ccc(C)c(Nc4nccc(-c5cccnc5)n4)c3)cc(C(F)(F)F)c2)cn1 [nilotinib]
Outline: as §1

[5] = compound: Cc1nc(Nc2n[nH]c3c2CN(C(=O)N[C@H](CN(C)C)c2ccccc2)C3(C)C)c2sccc2n1
Outline: as §1

[6] = compound: Cc1ncc(-c2ccnc(Nc3ccc(S(C)(=O)=O)cc3)n2)n1C(C)C
Outline: as §1

tipifarnib = compound: Cn1cncc1[C@@](N)(c1ccc(Cl)cc1)c1ccc2c(c1)c(-c1cccc(Cl)c1)cc(=O)n2C [tipifarnib]
Outline: as §1

Measured: log2 fold change

FYN (UniProt P06241)
inactive: dasatinib 0.02 | [1] 0.004 | quisinostat 0.022 | [2] -0.029 | [3] -0.025 | [4] 0.043

FRAT1 (UniProt Q92837)
inactive: dasatinib 0.022 | [1] 0.173

GARS1 (UniProt H7C443)
inactive: [3] 0.005

GC isoform 3 (UniProt P02774)
inactive: dasatinib 0.044 | [1] -0.114 | quisinostat 0.175 | [2] -0.076

GDE1 (UniProt Q9NZC3)
inactive: dasatinib 0.012 | [1] -0.012 | quisinostat 0.085 | [2] 0.029 | [3] -0.02 | [4] -0.022

GALNT4 (UniProt Q8N4A0)
inactive: dasatinib -0.081 | [1] 0.119 | quisinostat 0.064 | [2] -0.077 | [3] -0.123

GAPVD1 (UniProt Q14C86)
inactive: [3] -0.023

GALNT10 (UniProt Q86SR1)
inactive: dasatinib -0.048 | [1] 0.087 | [3] -0.063 | [4] -0.092

GFOD1 (UniProt Q9NXC2)
inactive: [3] 0.021 | [4] 0.18

FUS (UniProt H3BPE7)
inactive: dasatinib 0.053 | [1] -0.043

Reprinted from the listing (3 entries):
FYN (UniProt P06241)
inactive: dasatinib 0.02 | [1] 0.004 | quisinostat 0.022 | [2] -0.029 | [3] -0.025 | [4] 0.043

FRAT1 (UniProt Q92837)
inactive: dasatinib 0.022 | [1] 0.173

GARS1 (UniProt H7C443)
inactive: [3] 0.005

More records follow.

GANC (UniProt Q8TET4)
inactive: dasatinib -0.177 | [1] -0.166 | quisinostat 0.09 | [2] -0.006 | [3] 0.111 | [4] -0.067

FRMPD3 (UniProt Q5JV73)
inactive: nilotinib -0.178 | [5] 0.047 | [6] -0.286 | tipifarnib 0.075 | [3] 0.158 | [4] -0.065

FZD5 (UniProt Q13467)
inactive: dasatinib 0.077 | [1] 0.074 | [3] 0.031

FUNDC2 (UniProt H7C0K8)
inactive: nilotinib -0.136 | [5] 0.166 | [6] 0.162 | tipifarnib 0.073 | [3] -0.033

GCA (UniProt P28676)
inactive: nilotinib 0.071 | [5] -0.11 | [6] 0.096 | tipifarnib -0.141 | [3] -0.118 | [4] -0.017

GABPB1 isoform 3 (UniProt Q06547)
inactive: dasatinib -0.086 | [1] 0.034 | quisinostat -0.017 | [2] -0.012 | [3] -0.037 | [4] -0.016

G3BP2 isoform 2 (UniProt Q9UN86)
inactive: dasatinib 0.159 | [1] 0.299 | quisinostat 0.106 | [2] 0.01 | [3] -0.052

FRMPD2 (UniProt Q68DX3)
inactive: nilotinib -0.126 | [5] 0.11 | [6] 0.09 | tipifarnib 0.021 | [3] -0.08 | [4] -0.419

GAA (UniProt P10253)
inactive: nilotinib 0.058 | [5] 0.115 | [6] 0.267 | quisinostat 0.024 | tipifarnib -0.336 | [2] 0.007 | [3] -0.014 | [4] -0.003

FUT11 (UniProt Q495W5)
inactive: nilotinib -0.037 | [5] -0.026 | [6] -0.011 | quisinostat 0.025 | tipifarnib 0.052 | [2] 0.078 | [3] 0.107 | [4] -0.088

FUT1 (UniProt P19526)
inactive: quisinostat -0.013 | [2] 0.008

GDPD5 (UniProt Q8WTR4)
inactive: quisinostat -0.034 | [2] 0.011

GAS6 isoform 1 (UniProt Q14393)
inactive: quisinostat 0 | [2] 0.318 | [3] 0.036 | [4] 0.146

FOXO3B, A0A2Z4LIS9
inactive: dasatinib -0.004 | [1] 0.04

GBP2 (UniProt P32456)
inactive: dasatinib 0.222 | [1] -0.096 | quisinostat -0.106 | [2] 0.033 | [3] 0.067 | [4] 0.161

GAGE1 (UniProt Q13065)
inactive: [3] 0.052

FTSJ1 isoform 2 (UniProt Q9UET6)
inactive: [3] -0.019

FSCN2 isoform 2 (UniProt O14926)
inactive: quisinostat 0.25 | [2] -0.035

GALNT7 (UniProt H0YAH3)
inactive: nilotinib 0.078 | [5] -0.261 | [6] 0.048 | tipifarnib -0.034 | [4] -0.008

G0S2 (UniProt P27469)
inactive: nilotinib 0.084 | [5] 0.199 | [6] 0.271 | quisinostat -0.03 | tipifarnib 0.155 | [2] 0.035 | [4] 0.087

GAB3 isoform 2 (UniProt Q8WWW8)
inactive: dasatinib 0.167 | [1] 0.04 | quisinostat -0.002 | [2] -0.036

GABPB2 (UniProt Q8TAK5)
inactive: dasatinib 0.011 | [1] -0.005 | quisinostat -0.109 | [2] 0.023

FRAS1 isoform 2 (UniProt Q86XX4)
inactive: dasatinib -0.004 | [1] 0.051 | quisinostat -0.361 | [2] 0.12

GDAP1 (UniProt Q8TB36)
inactive: dasatinib 0.153 | [1] -0.056 | quisinostat 0.059 | [2] 0.009 | [3] -0.011 | [4] -0.082

FYTTD1 (UniProt Q96QD9)
inactive: dasatinib -0.044 | [1] 0.052 | quisinostat -0.071 | [2] 0.029 | [4] 0.032

FUT8 (UniProt Q9BYC5)
inactive: [3] -0.019 | [4] 0.071

GFOD2 (UniProt Q3B7J2)
inactive: dasatinib 0.201 | [1] 0.139 | [3] 0.026 | [4] -0.232

FOXL2 (UniProt P58012)
inactive: dasatinib 0.023 | [1] -0.013 | [3] -0.15 | [4] 0.076

GALNT3 (UniProt Q14435)
inactive: quisinostat 0.078 | [2] 0.035

GEMIN8 (UniProt Q9NWZ8)
inactive: nilotinib 0.102 | [5] 0.063 | [6] -0.018 | quisinostat -0.088 | tipifarnib -0.025 | [2] 0.074 | [3] -0.028 | [4] -0.012
